Results are given in words; binding and its absence hold for the method and conditions named. In cells and extracts the contact can be indirect. Binding calls can cover weak binding; strength is not graded here. Where a sequence is shown, tags or fusion partners need not be part of it.
Molecular target: Xenopus laevis DYRK1B (xDYRK1B), untagged (Xenopus laevis)
Assay: co-IP; HeLa cells co-expressing FLAG-hDCAF7 and untagged human or Xenopus DYRK1B; DYRK1B immunoprecipitated; DCAF7 detected by Western blot

B1: FLAG-hDCAF7 (protein, UniProt P61962 1-342)
chain: MSLHGKRKEIYKYEAPWTVYAMNWSVRPDKRFRLALGSFVEEYNNKVQLVGLDEESSEFICRNTFDHPYPTTKLMWIPDTKGVYPDLLATSGDYLRVWRVGETETRLECLLNNNKNSDFCAPLTSFDWNEVDPYLLGTSSIDTTCTIWGLETGQVLGRVNLVSGHVKTQLIAHDKEVYDIAFSRAGGGRDMFASVGADGSVRMFDLRHLEHSTIIYEDPQHHPLLRLCWNKQDPNYLATMAMDGMEVVILDVRVPCTPVARLNNHRACVNGIAWAPHSSCHICTAADDHQALIWDIQQMPRAIEDPILAYTAEGEINNVQWASTQPDWIAICYNNCLEILRV
In the case of B1, the binding is reported as “binds”.
